PubChem BioAssay AID743454, Peter MacCallum Cancer Centre – 2014
The whole screen tested about 18,000 reagents; below is an unselected part. 450 of all reagents (2.5%) were called active. 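Single biological run; no consistent viability z cut-off exists, so the class columns, not z-scores, define the calls.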

Aim: 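Genes whose loss kills vorinostat-resistant colon cancer cells under vorinostat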 (primary screen)
System: human HCT116-VR colon cancer cells, selected for vorinostat resistance
Reagent: siRNA pool against human genes, 40 nM siRNA pool
Duration: vorinostat for 24 h, read-out about 72 h after transfection
Treatment: vorinostat at 2.5 µM final
Detection: 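Cell viability by CellTiter-Fluor and caspase 3/7 activity by luminescence, each scaled to mock wells per plate, duplicates averaged, then robust z-scored over all plates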
Scale: viability robust z-score: higher = more viable cells than screen typical; caspase robust z-score: higher = more caspase 3/7 activity than screen typical
Hit rule: 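a knock-down is a hit when classed RV1 or RV2 for lowered viability, or CA1 or CA2 for caspase activation; those lethal without drug were dropped; hits were retested singly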

| Target gene | PubChem SID | viability hit class | caspase hit class | viability robust z-score | caspase robust z-score | activity call |
| --- | --- | --- | --- | --- | --- | --- |
| ELAPOR1 | SID152153312 | no change | no change | -0.12 | 0.57 | inactive |
| AKAP8 (A-kinase anchoring protein 8) | SID56479229 | no change | CA1 (caspase activation) | 0.04 | 6.26 | active |
| DRC3 (dynein regulatory complex subunit 3) | SID135623741 | no change | no change | -0.82 | 3.08 | inactive |
| H2AZ2 (H2A.Z variant histone 2) | SID134316743 | no change | no change | -0.23 | -0.14 | inactive |
| RNF20 (ring finger protein 20) | SID134312150 | no change | no change | 0.14 | 1.34 | inactive |
| IRF2BP2 (interferon regulatory factor 2 binding protein 2) | SID135621334 | no change | no change | -0.44 | 2.86 | inactive |
| TMSB15A (thymosin beta 15A) | SID135623835 | no change | no change | 0.48 | 0.29 | inactive |
| GIP (gastric inhibitory polypeptide) | SID152156504 | no change | no change | 0.57 | 1.46 | inactive |
| NOMO1 (NODAL modulator 1) | SID135621980 | no change | no change | -1.29 | -0.83 | inactive |
| RMP24 (ribonuclease MRP subunit p24) | SID152150577 | no change | no change | 0.22 | -0.14 | inactive |
| SMDT1 (single-pass membrane protein with aspartate rich tail 1) | SID134320684 | no change | no change | 1.27 | 2.71 | inactive |
| INTS8 (integrator complex subunit 8) | SID135623956 | no change | no change | -0.32 | -0.17 | inactive |
| PIGF (phosphatidylinositol glycan anchor biosynthesis class F) | SID152147913 | no change | no change | -0.01 | -0.57 | inactive |
| GDAP1 (ganglioside induced differentiation associated protein 1) | SID135624150 | no change | no change | 0.86 | -0.32 | inactive |
| SALL3 (spalt like transcription factor 3) | SID152150523 | no change | CA1 (caspase activation) | -1.06 | 5.92 | active |
| MLH3 (mutL homolog 3) | SID135621865 | no change | no change | -0.25 | -0.12 | inactive |
| CDH9 (cadherin 9) | SID135622468 | no change | no change | 1.45 | 0.88 | inactive |
| TBC1D9 (TBC1 domain family member 9) | SID152156324 | no change | no change | 0.76 | 3.02 | inactive |
| LAMB3 (laminin subunit beta 3) | SID152154426 | no change | no change | -2.09 | 0.78 | inactive |
| CALD1 (caldesmon 1) | SID134316125 | no change | no change | -0.32 | -0.23 | inactive |
| B4GALT7 (beta-1,4-galactosyltransferase 7) | SID134316662 | no change | no change | -1.27 | -0.3 | inactive |
| GGCT (gamma-glutamylcyclotransferase) | SID134318446 | no change | no change | -1.26 | -0.86 | inactive |
| LY6G6F (lymphocyte antigen 6 family member G6F) | SID134329824 | no change | no change | 1.06 | -0.65 | inactive |
| HSD17B14 (hydroxysteroid 17-beta dehydrogenase 14) | SID152151639 | no change | no change | -0.68 | 4.04 | inactive |
| ARHGAP36 (Rho GTPase activating protein 36) | SID134313318 | no change | no change | -1.27 | 2.58 | inactive |
| UBTF (upstream binding transcription factor) | SID152149297 | no change | no change | 0.85 | 0.28 | inactive |
| H4C2 (H4 clustered histone 2) | SID134315799 | no change | no change | -1.5 | -0.4 | inactive |
| DUSP15 (dual specificity phosphatase 15) | SID135621579 | no change | no change | 0.5 | -1.06 | inactive |
| LIN28B (lin-28 RNA binding posttranscriptional regulator B) | SID152152711 | no change | no change | 0.95 | 0.59 | inactive |
| NMBR (neuromedin B receptor) | SID135620723 | no change | no change | -0.19 | -0.86 | inactive |

Active calls, of those listed so far:
| Target gene | PubChem SID | viability hit class | caspase hit class | viability robust z-score | caspase robust z-score | activity call |
| --- | --- | --- | --- | --- | --- | --- |
| AKAP8 (A-kinase anchoring protein 8) | SID56479229 | no change | CA1 (caspase activation) | 0.04 | 6.26 | active |
| SALL3 (spalt like transcription factor 3) | SID152150523 | no change | CA1 (caspase activation) | -1.06 | 5.92 | active |

The results go on.
| Target gene | PubChem SID | viability hit class | caspase hit class | viability robust z-score | caspase robust z-score | activity call |
| --- | --- | --- | --- | --- | --- | --- |
| TESK1 (testis associated actin remodelling kinase 1) | SID152149255 | no change | no change | -1.19 | 3.49 | inactive |
| NPVF (neuropeptide VF precursor) | SID152148046 | no change | no change | 0.32 | 0.42 | inactive |
| KRTAP19-6 (keratin associated protein 19-6) | SID135623553 | no change | no change | -1.37 | 3.6 | inactive |
| CD209 (CD209 molecule) | SID134309915 | no change | no change | 0.24 | 0.52 | inactive |
| ZNF407 (zinc finger protein 407) | SID152150310 | no change | no change | -0.36 | 1.08 | inactive |
| ZNF791 (zinc finger protein 791) | SID134319777 | no change | no change | -0.68 | 0.7 | inactive |
| TMEM50A (transmembrane protein 50A) | SID152153885 | no change | no change | 0.9 | 0.54 | inactive |
| ART4 (ADP-ribosyltransferase 4 (inactive) (Dombrock blood group)) | SID152154434 | no change | no change | -0.84 | -0.79 | inactive |
| SNX20 (sorting nexin 20) | SID152147899 | no change | no change | 0.08 | -0.6 | inactive |
| ANKS3 (ankyrin repeat and sterile alpha motif domain containing 3) | SID152150177 | no change | no change | 0.85 | -0.22 | inactive |
| SIGLEC7 (sialic acid binding Ig like lectin 7) | SID152155345 | no change | no change | 0.06 | -0.43 | inactive |
| SLC43A2 | SID134320433 | no change | no change | 0.62 | 0.5 | inactive |
| CCNG1 (cyclin G1) | SID56478577 | no change | no change | 0.9 | 0.32 | inactive |
| TNRC18 (trinucleotide repeat containing 18) | SID135624503 | no change | no change | 0.21 | -0.72 | inactive |
| TMEM165 (transmembrane protein 165) | SID134322681 | no change | no change | 0.2 | -0.53 | inactive |
| TBC1D15 (TBC1 domain family member 15) | SID134320210 | no change | no change | -0.52 | -0.24 | inactive |
| TLDC2 (TBC/LysM-associated domain containing 2) | SID135625223 | no change | no change | 0.73 | -0.08 | inactive |
| CSTF2 (cleavage stimulation factor subunit 2) | SID135622090 | no change | no change | 0.45 | -1.19 | inactive |
| TRIR (telomerase RNA component interacting RNase) | SID135622708 | no change | no change | -2.27 | 1.74 | inactive |
| RSF1 (remodeling and spacing factor 1) | SID134324085 | no change | no change | -0.66 | 4.47 | inactive |
| PAK1IP1 (PAK1 interacting protein 1) | SID152152276 | no change | no change | -0.96 | 0.38 | inactive |
| SIX1 (SIX homeobox 1) | SID152148119 | no change | no change | -0.46 | 0.02 | inactive |
| ISG20L2 (interferon stimulated exonuclease gene 20 like 2) | SID152147918 | no change | no change | -1 | 1.52 | inactive |
| SRMS | SID56479047 | no change | no change | -1.56 | -0.32 | inactive |
| PCDHAC2 (protocadherin alpha subfamily C, 2) | SID134317479 | no change | no change | -1.38 | 0.11 | inactive |
| SRGAP2 (SLIT-ROBO Rho GTPase activating protein 2) | SID135624224 | no change | no change | -0.26 | 1.98 | inactive |
| DIPK2A (divergent protein kinase domain 2A) | SID152152502 | no change | no change | 0.5 | 1.2 | inactive |
